Data reported in article PMC7160454.
No constants are given. Whether binding was seen depends on the method and setting. Some entries that bind do so weakly or less than the wild type. Where a sequence is shown, tags or fusion partners need not be part of it.

B1: recombinant mBMP-4 (mouse bone morphogenetic protein-4) (ligand, UniProt P21275 293-408)
chain: SPKHHPQRSRKKNKNCRRHSLYVDFSDVGWNDWIVAPPGYQAFYCHGDCPFPLADHLNSTNHAIVQTLVNSVNSSIPKACCVPTELSAISMLYLDEYDKVVLKNYQEMVVEGCGCR
B2: recombinant mBMP-2 (mouse bone morphogenetic protein-2) (ligand, UniProt P21274 281-394)
chain: QAKHKQRKRLKSSCKRHPLYVDFSDVGWNDWIVAPPGYHAFYCHGECPFPLADHLNSTNHAIVQTLVNSVNSKIPKACCVPTELSAISMLYLDENEKVVLKNYQDMVVEGCGCR
B3: VP16-mBMP-4 (secreted form of mBMP-4, residues 293-408, fused to the VP16 activation domain) (domain or fragment, UniProt P21275 293-408)
chain: B1 chain
B4: VP16-mBMP-2 (secreted form of mBMP-2, residues 281-394, fused to the VP16 activation domain) (domain or fragment, UniProt P21274 281-394)
chain: B2 chain

Legend:
[1] = biological target: T1, GST-mMGP (mouse matrix Gla protein, residues 20-104, without the signal peptide) (mouse) (UniProt P19788); assay: pull-down; GST-mMGP and mBMP-4 incubated without or together with the anti-MGP antibody (goat polyclonal) at the same molar ratio as GST-mMGP; both purified
T1 sequence: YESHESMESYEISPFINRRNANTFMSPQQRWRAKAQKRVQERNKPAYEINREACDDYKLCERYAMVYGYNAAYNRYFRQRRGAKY

[2] = biological target: T1, GST-mMGP (mouse matrix Gla protein, residues 20-104, without the signal peptide) (mouse); assay: pull-down; immobilized GST-mMGP (10 ug) with recombinant mBMP-4 or mBMP-2 (50 ng) in BC150 buffer with 0.1% NP-40 and 1 mM beta-mercaptoethanol, 4 °C, 1 h; eluted in 0.3% sarkosyl, western blot; both purified
[3] = biological target: T1, GST-mMGP (mouse matrix Gla protein, residues 20-104, without the signal peptide) (mouse); assay: condition: only with the anti-MGP antibody at the same molar ratio as GST-mMGP; pull-down; GST-mMGP and mBMP-4 incubated without or together with the anti-MGP antibody (goat polyclonal) at the same molar ratio as GST-mMGP; both purified
[4] = biological target: T2, Gal4-mMGP (mMGP (20-104) fused to GAL4) (mouse) (UniProt P19788); assay: two-hybrid; mammalian two-hybrid: pGal4-mMGP (10 ng) and pVP16-mBMP-4 or pVP16-mBMP-2 (150 ng) with 5 x GAL4-LUC reporter and Renilla control, Lipofectamine 2000, luciferase read-out
T2 sequence: T1 sequence

Row | Binder | binding [1] | binding [2] | binding [3] | binding [4]
1 | B1 | binds | binds | no binding | –
2 | B2 | – | binds | – | –
3 | B3 | – | – | – | binds
4 | B4 | – | – | – | binds
